Some results are limits rather than exact numbers.

One sequence from patent publication US20240209029A1, “ADIPONECTIN GLYCOPEPTIDES AND COMPOSITIONS AND METHODS OF USE THEREOF” (The University of Hong Kong, priority 2021, published 2024) can be followed below.

Experiment [1] relates to MDA-MB-231 cells. The experiment can be described thus: Combination index (CI) analysis, chess-board assay with adiponectin. The class given is cell-based, human. The conditions noted are these: chessboard assay, co-incubation of peptide with adiponectin. On the procedure:
FIGS. 3A-3B are bar graphs showing the Emax (FIG. 3A) and EC50 (FIG. 3B) of adiponectin or peptides with no glycans (hAdn-WM), or mono-, di-, tri- and tetra-glycans. The glyACD and adiponectin elicit synergistic anti-proliferative activity in human MDA-MB-231 cells. After serum starvation for 24 hours, MDA-MB-231 cells were treated with different concentrations of hAdn-WM, glyACD, full-length human adiponectin, or their combinations. After incubation for another 24 hours, cells were harvested for manual counting. FIG. 3C is a graph showing the inhibition rate on MDA-MB-231 cells of the indicated peptides. […] The percentage inhibition on cell growth was calculated and indicated by different intensity of the blue color. […]
CI was used to determine the mode of drug interaction. […] Cells were treated with a concentration of adiponectin ranging from 0 to 2.5 μg/ml and of hAdn-WM or hAdn-WM656877101 ranging from 0 to 20 μg/ml for 24 hours and then cell numbers were counted. CI was calculated by the formula of CI=CA,x/Cx,A+CB,x/Cx,B, where CA,x and CB,x are the concentration of drug A and B used in combination to achieve x % drug effect (inhibition rate); Cx,A and Cx,B are the concentrations for single agents to achieve the same effect. […]

The test system of experiment [2] is MDA-MB-231 cells. The experiment can be described thus: Cancer cell proliferative assay (anti-proliferative activity, manual cell counting). The class given is cell-based, human. On the procedure:
FIGS. 3A-3B are bar graphs showing the Emax (FIG. 3A) and EC50 (FIG. 3B) of adiponectin or peptides with no glycans (hAdn-WM), or mono-, di-, tri- and tetra-glycans. The glyACD and adiponectin elicit synergistic anti-proliferative activity in human MDA-MB-231 cells. After serum starvation for 24 hours, MDA-MB-231 cells were treated with different concentrations of hAdn-WM, glyACD, full-length human adiponectin, or their combinations. After incubation for another 24 hours, cells were harvested for manual counting. FIG. 3C is a graph showing the inhibition rate on MDA-MB-231 cells of the indicated peptides. MDA-MB-231 cells were treated with different concentrations of adiponectin in the absence or presence of low (2.5 μg/ml) or high (20 μg/ml) doses of hAdn-WM or hAdn-WM656877101. FIG. 3D is a heatmap showing the percentage inhibition on cell growth. MDA-MB-231 cells were treated with 0, 0.22, 0.33, 0.49, 0.74, 1.11, 1.67, 2.5 μg/ml adiponectin in combination with 0, 0.3125, 0.625, 1.25, 2.5, 5, 10, 20 μg/ml hAdn-WM or hAdn-WM656877101. The percentage inhibition on cell growth was calculated and indicated by different intensity of the blue color. Data are presented as mean±SEM (n=6). *, P<0.05 vs full-length human adiponectin; ♦, P<0.05 vs peptide with no glycans (hAdn-WM); ▴, P<0.05 vs peptide with tetra-glycans (hAdn-WM656877101).
MDA-MB-231 cells were cultured in DMEM supplemented with 10% FBS and 1% penicillin-streptomycin-fungisone at 37° C. and under 5% CO2 95% humidified air. After harvesting, cells were seeded at a density of 3000 cells per well in 96-well plates and then cultured for 24 hours. After fasting in DMEM with 0.5% FBS for 24 hours, cells were subsequently stimulated with 2.5% FBS in the presence of peptides, human adiponectin or other drugs. The viable cell numbers at 24 hours at different doses were manually counted by mixing with trypan blue dye for analysis. The maximum inhibition rate (Emax) and half maximal effective concentration (EC50) were used to evaluate the anti-tumor activity of peptides and adiponectin.
Human breast cancer MDA-MB-231 cells were used to evaluate the anti-proliferative activities of adiponectin, and the 15 glyACD and non-glycosylated hAdn-WM peptides. […] The Emax of glyACD ranged from ˜26.0% to ˜53%, which was lower than that of full-length adiponectin but higher than hAdn-WM.

Where [3] appears, read: 24 hours incubation, viable cells manually counted.

A word on the EC50: it is the concentration needed to bring the measured effect to its halfway point. On to “WMAGIPGHPGHNGAPGRDGRDGTPGEKGEKGDPGLIGPKGDIGETGVPGAEGPRGFPGIQGRKGEPGEG [hAdn-WM]”, for which the Combination index in the experiment with MDA-MB-231 cells [1] (24 hours) is > 1. Further, the “Effect on the anti-proliferative activity of adiponectin” value with MDA-MB-231 cells [1] (FIG. 3D) is recorded as “reduced the anti-proliferative activity of adiponectin”. In the experiment on MDA-MB-231 cells [2], the “Higher EC50 compared to full-length human adiponectin” value is recorded as ~19 fold and the “Reduction of Emax compared to full-length human adiponectin” value was “three-fold”. Also, in the experiment with MDA-MB-231 cells [2] (setting [3]), the “EC50” value came out at 6.27 ± 0.62 µg/mL and the “Emax (%) maximum inhibition rate” value is given as 23.0 ± 4.23%. In the experiment on MDA-MB-231 cells [2] (in the presence of 20 μg/ml peptide, FIG. 3C), the “Emax of human adiponectin in the presence of peptide” value came out at 54.2±2.95%.
